Test results: PubChem BioAssay AID540276 (National Center for Advancing Translational Sciences (NCATS), 2011)
“And” between values parts separate entries of the source, which are not always exact repeats. Equal values may be shown once. In all, about 300,000 compounds went through this assay and about 5,400 (1.8%) were called active. This list was built around the results that the source calls inconclusive (neither active nor inactive); the mix of calls is not that of the screen. Calls come from the whole dose curve; tested in HEK293 cells. Where the call is inconclusive, the potency comes from a doubtful curve fit. Some structures have more than one record in an assay (separate samples or runs), and their calls can disagree. Non-standard residues stand in square brackets, D forms with d. Residues, ends and D or L forms follow the SMILES beside them. *: point of attachment. Ac5c = NC1(C(=O)O)CCCC1; Cbz = O=C(OCc1ccccc1)*
Potency is the fitted concentration of half-maximal effect.

Assay: qHTS for inhibitors of binding or entry into cells for Marburg Virus
Conditions: Marburg virus pseudotyped entry inhibition, cell reporter; series mostly up to 37.8 µM
With `CC(=O)n1cc(N(C(=O)CCl)c2ccc(C)cc2)c2ccccc21` the Potency was active: 7.08 µM.
In the case of `COc1ccc(-c2csc(NC(=O)c3c(C)noc3C)n2)cc1F`, the Potency is reported as inconclusive: 35.5 µM [inhibitor, single point].
With `COc1ccc(CNc2ncc(-c3ccc(F)cc3)n2C)c2ccccc12` the Potency was inconclusive: 22.4 µM [inhibitor, single point].
In the case of `O=C(Nc1nc2cc3c(cc2s1)OCCO3)C1CCCCC1`, the Potency is reported as inconclusive: 12.6 µM [inhibitor, partial curve, poor fit].
For `O=C(c1noc2c1CCc1ccccc1-2)N1CCCc2ccccc21`, the Potency was inconclusive: 29.1 µM [inhibitor, single point].
With `CC(=NNC(=S)N1CC2CCC(CC2)C1)c1cnccn1` the Potency was inconclusive: 0.126 µM [inhibitor, full curve, poor fit].
In the case of `N/C(=N\OC(=O)N1c2ccccc2Sc2ccccc21)c1ccc(Br)cc1`, the Potency is reported as inconclusive: 8.91 µM [inhibitor, partial curve, poor fit].
For `CC(C)(C)C1(CCO)C(=O)NC(=S)NC1=O`, the Potency was inconclusive: 4.47 µM [activator, full curve, poor fit].
In the case of `COc1c(Cl)cc(C(=O)NN)cc1Cl`, the Potency is reported as inconclusive: 4.47 µM [inhibitor, partial curve].
With `C=CCn1c2ccccc2c2nnc(SCN3C(=O)c4ccccc4C3=O)nc21` the Potency was “inactive”.
In the case of `CCOC(=O)CNC(=O)C1(NC(=O)CNC(=O)OCc2ccccc2)CCCC1` (Cbz-Gly-[Ac5c]-Gly-OEt), the Potency is reported as inconclusive: 35.5 µM [activator, single point].
In the case of `COc1cc(NC(=O)c2cccs2)c(OC)cc1NC(=O)c1cccs1`, the Potency is reported as inconclusive: 1.26 µM [activator, single point].
For `COc1cc(/C=C2\SC(c3ccccc3)=NC2=O)cc(Cl)c1O`, the Potency was inconclusive: 7.08 µM [inhibitor, full curve, poor fit].
With `CC(CN1CCN(C)CC1)OC(=O)c1ccc(Cl)cc1Cl` (stereo not drawn) the Potency was “inactive”.
In the case of `CCOc1cc(/C=C2\N=C(C)OC2=O)cc(Br)c1OCCc1ccccc1`, the Potency is reported as “inactive”.
In the case of `CCN(CC(=O)Nc1cccc(S(=O)(=O)N(C)c2ccccc2)c1)Cc1cccs1`, the Potency is reported as inconclusive: 11.2 µM [inhibitor, partial curve, poor fit].
With `O=c1c2ccccc2nc(/C=C\c2ccccc2[N+](=O)[O-])n1-c1ccccc1O` the Potency was inconclusive: 8.91 µM [inhibitor, partial curve, poor fit].
For `CC(C)CCNC(=O)COC(=O)c1ccc(Br)o1`, the Potency was “inactive”.
With `Cc1csc(NC(=O)C2CCCC2)n1` the Potency was “inactive”.
With `Cn1nc(N)nc1N1CCN(c2ccc(F)cc2)CC1` the Potency was inconclusive: 35.5 µM [inhibitor, single point].
With `O=C(N/N=C/c1cccc(O)c1)c1ccc(COc2ccc3c(c2)CCC3)o1` the Potency was inconclusive: 3.16 µM [activator, partial curve, poor fit].
In the case of `CCOC(=O)c1cccc(NC(=O)c2cnc3ccccc3n2)c1`, the Potency is reported as “inactive”.
For `Cc1ccsc1/C=N/N1CCN(C2c3ccccc3-c3ccccc32)CC1`, the Potency was inconclusive: 5.62 µM [inhibitor, single point].
For `O=c1c2ccccc2cnn1-c1ccc(Br)cc1`, the Potency was inconclusive: 10 µM [inhibitor, single point].
In the case of `COc1ccccc1NC(=O)C(C)Sc1nnc2ccc3ccccc3n12` (stereo not drawn), the Potency is reported as “inactive”.
With `Clc1ccc2c(c1)C(c1ccccc1Cl)=NCc1nnc(N3CCN(CCSc4ccccc4)CC3)n1-2` the Potency was inconclusive: 25.1 µM [inhibitor, single point].
For `COc1ccc(NS(=O)(=O)c2cc(NC(=O)C3CC3)ccc2N2CCOCC2)cc1`, the Potency was “inactive”.
In the case of `O=C(CCCN1C(=O)c2ccccc2C1=O)Nc1sc2c(c1C(=O)NCc1ccco1)CCC2`, the Potency is reported as “inactive and inconclusive: 23.1 µM [inhibitor, partial curve, poor fit]”.
With `COC(=O)CCc1c(C)nn(-c2ccccc2)c1C` the Potency was “inactive”.
For `COc1ccc2c(c1OC)C(=O)N(c1ccc(F)cc1)C2`, the Potency was inconclusive: 6.31 µM [activator, partial curve, poor fit].
In the case of `CCCN1CCN(CCCNC(=O)CCn2nc(-c3ccccc3)ccc2=O)CC1`, the Potency is reported as inconclusive: 2.82 µM [inhibitor, partial curve, poor fit].
For `CN(C)C(=O)c1ccc(NC(=O)c2sccc2-c2ccccc2)cc1`, the Potency was “inactive”.
For `CC1(C2CCC3C4CCC5CC6(CCC5(C)C4C(=O)CC32C)OCCO6)OCCO1` (stereo not drawn), the Potency was inconclusive: 15.8 µM [inhibitor, single point].
In the case of `Cc1oc2ccc(O)c(CN3CCCC3)c2c1C(=O)Nc1ccccc1`, the Potency is reported as inconclusive: 20 µM [inhibitor, single point].
In the case of `Cc1cccc(N2CCN(C(=O)C3CCCN(S(=O)(=O)c4ccc5c(c4)oc(=O)n5C)C3)CC2)c1C` (stereo not drawn), the Potency is reported as inconclusive: 22.4 µM [inhibitor, single point].
For `Cc1ccc2nc(SCc3ccccc3)c(C=O)c(=O)n2c1`, the Potency was “inactive”.
For `CC1(C(=O)O)CCC(C(=O)N2CCCCC2)C1(C)C` (stereo not drawn), the Potency was inconclusive: 1.26 µM [inhibitor, single point].
With `Cc1ccccc1-n1c(O)c(/C=C2/C(c3ccccc3)=Nc3ccccc32)c(=O)[nH]c1=O` the Potency was inconclusive: 3.98 µM [inhibitor, partial curve, poor fit].
For `COc1ccccc1Cn1cc(C(=O)c2ccc(Cl)cc2)c(=O)c2ccccc21`, the Potency was inconclusive: 31.6 µM [inhibitor, single point].
For `O=c1cc(C(F)(F)F)[nH]c2ccc(C(F)(F)F)cc12`, the Potency was inconclusive: 25.1 µM [inhibitor, single point].
In the case of `COC(=O)c1cn(NC(=O)C2CCC(C(C)(C)C)CC2)c(=O)c2ccccc12` (stereo not drawn), the Potency is reported as “inactive”.
With `CCCNC(=S)N1CCN(C)CC1` the Potency was inconclusive: 0.282 µM [activator, full curve, poor fit].
In the case of `CC(C)CCNC(=O)c1cc(C(=O)c2cc(F)ccc2O)cn(CCC(C)C)c1=O`, the Potency is reported as “inactive”.
With `CCOC(=O)/C(C#N)=C/c1c[nH]c2ccccc12` the Potency was inconclusive: 2.24 µM [activator, partial curve, poor fit].
With `CC(C)OCCCNC(=O)c1cn(C)c2ccc(S(=O)(=O)N3CCCCCC3)cc2c1=O` the Potency was inconclusive: 2 µM [inhibitor, single point].
For `Cc1ccc(CN2CCN(/N=C/c3ccc(C)s3)CC2)cc1`, the Potency was inconclusive: 0.631 µM [inhibitor, partial curve, poor fit].
With `CCOC(=O)c1c(C)[nH]c(C(=O)COC(=O)c2ccc(F)c(S(=O)(=O)N3CCOCC3)c2)c1C` the Potency was inconclusive: 0.316 µM [activator, partial curve, poor fit].
For `Cc1ccc(-n2c(N)c(C(=O)NCc3cccnc3)sc2=S)cc1`, the Potency was inconclusive: 3.16 µM [inhibitor, partial curve, poor fit].
In the case of `CC1CN(CCCOc2ccccc2-c2ccccc2)CC(C)O1` (stereo not drawn), the Potency is reported as “inactive”.
In the case of `CC(=O)c1ccccc1OCCCN1CCCCC1`, the Potency is reported as “inactive”.
In the case of `Fc1ccccc1-c1n[nH]c(=S)n1CC1CCCO1` (stereo not drawn), the Potency is reported as inconclusive: 1.58 µM [activator, partial curve, poor fit].
With `CN(C)CCCNc1oc(-c2ccccc2Cl)nc1S(=O)(=O)c1ccc(F)cc1` the Potency was inconclusive: 20 µM [inhibitor, single point].
In the case of `CC1=C2C(=O)C3C(CC=C4CC(O)CCC43C)C2CCC12OC1CC(C)CNC1C2C` (stereo not drawn), the Potency is reported as inconclusive: 2.51 µM [activator, full curve].
For `CC(=O)N1c2ccccc2C(=O)OC1c1cccnc1` (stereo not drawn), the Potency was “inactive”.
In the case of `CNc1nc(Sc2ccc(C)cc2)cc(C(F)(F)F)n1`, the Potency is reported as inconclusive: 16.4 µM [inhibitor, partial curve, poor fit].
In the case of `NS(=O)(=O)c1ccc(NC(=O)c2ccc(-c3ccccc3)cc2)cc1`, the Potency is reported as “inactive”.
With `COc1ccc(-n2ncc3c2CC(C)(C)CC3NC(=O)CN2CCOC2=O)cc1` (stereo not drawn) the Potency was inconclusive: 7.94 µM [inhibitor, partial curve, poor fit].
In the case of `CCC(C(=O)OCC(=O)N1CCN(S(=O)(=O)c2ccc(C)cc2C)CC1)c1ccccc1` (stereo not drawn), the Potency is reported as inconclusive: 0.316 µM [inhibitor, full curve, poor fit].
With `COc1cc2c(cc1OC)-c1cc(OCCN3CCOCC3)nc(=O)n1CC2` the Potency was inconclusive: 5.8 µM [inhibitor, single point].
For `O=C1c2ccccc2C(=O)C1c1ccccc1`, the Potency was inconclusive: 7.31 µM [activator, partial curve, poor fit].
In the case of `COc1ccc(CN2CCN(C3CCSCC3)CC2CCO)c(C)c1C` (stereo not drawn), the Potency is reported as inconclusive: 35.5 µM [inhibitor, single point].
With `COc1ccc(OCC(=O)N2CCC(c3nc4ccccc4s3)CC2)cc1` the Potency was inconclusive: 11.2 µM [activator, partial curve, poor fit].
With `ON=C1c2ccccc2-c2cc(Br)ccc21` the Potency was “inactive”.
For `COc1ccc2c(COC(=O)CC3Sc4ccccc4NC3=O)cc(=O)oc2c1` (stereo not drawn), the Potency was “inactive”.
For `CN1CCCN(S(=O)(=O)c2cccc(Cl)c2Cl)CC1`, the Potency was inconclusive: 1.12 µM [activator, partial curve, poor fit].
For `CCOC(=O)C1CCN(C(=O)c2cc(S(=O)(=O)N3CCCCCC3)ccc2OC)CC1`, the Potency was “inactive”.
For `N#C/C(=C\c1ccc(F)c(F)c1)C(=O)NC1CCCCC1`, the Potency was inconclusive: 6.31 µM [activator, partial curve, poor fit].
